Experimental data reported in the supplement of paper PMC12823440, “Inhibitors supercharge kinase turnover through native proteolytic circuits” (Nature, 2025).
Where a name gives a salt, the structure may show the parent alone. The list shows a part of the results. Hit calls seldom repeat between salt and free forms of one compound.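 Kinases were expressed as nanoluciferase fusions in K562 cells and luminescence was read every 4 h between 2 and 18 h as percent of control, DMSO set to 100% and a positive control to 0%. A time point counts as decreased when the signal drops significantly (2 sigma). The hit call is the authors' own, does not follow from the count of time points alone, and its rule is not shown.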

Molecular target: RAF1 (UniProt P04049)
Test: number of time points (of 5) at which kinase-Nluc abundance scored as decreased, DMSO-normalised (count); higher = more persistent destabilization
Details: K562; 2-18 h

SMILES | number of time points
CC(C)CN(CC(=O)N1CCN(CC(OCc2ccc3ccccc3c2)c2ccc(Cl)cc2Cl)CC1)CC(C)C (stereo unspecified) [LYN-1604 (dihydrochloride)] (2.5 µM) | 0
CO[C@H]1C[C@@H]2CC[C@@H](C)[C@@](O)(O2)C(=O)C(=O)N2CCCC[C@H]2C(=O)O[C@H]([C@H](C)C[C@@H]2CC[C@@H](O)[C@H](OC)C2)CC(=O)[C@H](C)/C=C(\C)[C@@H](O)[C@@H](OC)C(=O)[C@H](C)C[C@H](C)/C=C/C=C/C=C/1C [Rapamycin] (10 µM) | 0
Cc1ccc(Nc2cc(-c3cccc(N4C(=O)c5ccccc5C4=O)c3)ncn2)cc1NS(C)(=O)=O (10 µM) | 0
Nc1cc(Nc2ccc(S(N)(=O)=O)cc2)ncn1 (10 µM) | 0
CCOc1cc(C(=O)N2CCC(N3CCN(C)CC3)CC2)ccc1Nc1ncc2c(n1)N(C1CCCC1)c1ccccc1C(=O)N2C (10 µM) | 0
COCCOc1ccc(-c2cn(-c3ccccc3)c3nc[nH]c(=O)c23)cc1 (10 µM) | 0
Cc1cc(O)c(C(C)C)cc1N=O [Poloxime] (10 µM) | 0

Molecular target: RAF1_S257L (clone: RAF1_mut) (UniProt P04049)
Test: as above
Details: K562; 2-18 h

SMILES | number of time points
COc1ccc(Cn2cc(C(=O)N=Nc3c(O)[nH]c4c(C)cccc34)nn2)cc1 [MARK4 inhibitor 1] (10 µM) | 0
COc1cc([N+](=O)[O-])ccc1S(=O)(=O)N1C[C@@H](CN2CCN(c3ccccn3)CC2)[C@H](c2cccc(F)c2)C1 (relative stereo) (10 µM) | 0
Cc1cc(Nc2nc(N[C@@H](C)c3ccc(F)cc3)c(C#N)cc2F)n[nH]1 (10 µM) | 0
Cc1ccc(S(=O)(=O)/C=C/C#N)cc1 (10 µM) | 0
Cc1c(CN2CCN(S(C)(=O)=O)CC2)sc2c(N3CCOCC3)nc(-c3cnc(N)nc3)nc12 (2.5 µM) | 0
COc1ccc(-c2ccc3c(N4CCOC[C@@H]4C)nc(N4CCOC[C@@H]4C)nc3n2)cc1CO (2.5 µM) | 3
CCN(CC)S(=O)(=O)c1ccc(OC)c(N2CCN(C(=O)c3ccc(F)cc3C(F)(F)F)CC2)c1 (10 µM) | 0
CC1CN(C(=O)Nc2ccc(Cl)c(Cl)c2)C(=Nc2ccc(F)cc2)S1 (stereo unspecified) (10 µM) | 0
COCCO[C@@H]1[C@H](O)[C@@H](CO)O[C@H]1n1cnc2c(=O)[nH]c(N)nc21 [2′-O-(2-Methoxyethyl)guanosine] (10 µM) | 0
COc1cc(F)c(F)c(Nc2ccc(I)cc2F)c1NS(=O)(=O)C1(C[C@H](O)CO)CC1 [Refametinib] (10 µM) | 1
CC(C)=CC[C@H](O)C1=CC(=O)c2c(O)ccc(O)c2C1=O [(-)-Alkannin] (2.5 µM) | 0
C[C@@]1(O)CCC[C@H]1n1c(=O)c(C(F)F)cc2cnc(NC3CCN(S(C)(=O)=O)CC3)nc21 (2.5 µM) | 1
CS(=O)(=O)c1ccc(-c2noc(C(F)(F)F)c2-c2ccccc2)cc1 (10 µM) | 0
COc1ccc2[nH]cc(/C=C3\C(=O)Nc4ccc(NC(=O)CCN5CCCCC5)cc43)c2c1 (2.5 µM) | 0
O=C(Nc1ccc(F)cc1F)[C@H](NC(=S)Nc1cc(C(F)(F)F)cc(C(F)(F)F)c1)c1ccccc1 (2.5 µM) | 0
CC(C)CN[C@H]1CS(=O)(=O)C[C@@H]1S(=O)(=O)c1ccc(Cl)cc1 (10 µM) | 1
COc1ccc(C2CC(c3ccccc3)=NN2c2ccc(S(N)(=O)=O)cc2)cc1 (stereo unspecified) (10 µM) | 0
CC/C=C\C/C=C\C/C=C\CCCCCCCC(=O)O [α-Linolenic acid] (10 µM) | 0
O=C(Nc1nc2ccccc2[nH]1)c1cccc(-n2cccc2)c1 (10 µM) | 0
COc1ncc(-c2nc(N3CCOCC3)nc3c(CN4CCC(C(C)(C)O)CC4)cc(F)cc23)cc1NS(C)(=O)=O [Linperlisib] (10 µM) | 0

SMILES | number of time points
COc1ccc([C@H]2c3[nH]c4ccc(Cl)cc4c3CCN2C(=O)Oc2ccc(Cl)cc2)cc1 (2.5 µM) | 0
COc1c(NC(=O)C(=O)c2ccc(OCCN3CCOCC3)c3ccccc23)cc(C(C)(C)C)cc1NS(C)(=O)=O (2.5 µM) | 0
COc1ccc([C@@H]2CC(=O)c3c(O)cc(O)cc3O2)cc1O [Hesperetin] (10 µM) | 0
N#Cc1cccc(-c2c[nH]c3ncnc(N4CCOCC4)c23)c1 (10 µM) | 0
C/C(=C1/C(=O)Nc2ccc(NC(N)=O)cc21)c1ccc[nH]1 (10 µM) | 0
Nc1ncnc2c1c(-c1ccc(Oc3ccccc3)cc1)nn2C1CCNCC1 [N-piperidine Ibrutinib (hydrochloride)] (10 µM) | 0
N#Cc1ccc2ncnc(NC3CCC(N4CCOCC4)CC3)c2c1 (stereo unspecified) (10 µM) | 0
CC(=O)c1c(C)c2cnc(Nc3ccc(N4CCN(CCCCNC(=O)COc5cccc6c5C(=O)N(C5CCC(=O)NC5=O)C6=O)CC4)cn3)nc2n(C2CCCC2)c1=O (stereo unspecified) (10 µM) | 0
CC(C)=CC(=O)CCC(=O)N1CCN(Cc2cc3nc(-c4cccc5[nH]ncc45)nc(N4CCOCC4)c3s2)CC1 (10 µM) | 0
Cc1ccc(S(=O)(=O)Nc2ccccc2C=Nc2ccccc2NS(=O)(=O)c2ccc(C)cc2)cc1 (10 µM) | 0
NCCN1CCN(C/C=C/C(=O)N2CCC[C@@H](n3nc(-c4ccc(Oc5ccccc5)cc4)c4c(N)ncnc43)C2)CC1 [Ibrutinib-MPEA] (10 µM) | 0
O=C(CNC(=O)c1ccc(-c2ccccc2)cc1)NC1CCCc2ccccc21 (stereo unspecified) [TAO Kinase inhibitor 1] (10 µM) | 0
CC(C)CN(CC(=O)N1CCN(CC(OCc2ccc3ccccc3c2)c2ccc(Cl)cc2Cl)CC1)CC(C)C (stereo unspecified) [LYN-1604 (dihydrochloride)] (2.5 µM) | 0
CO[C@H]1C[C@@H]2CC[C@@H](C)[C@@](O)(O2)C(=O)C(=O)N2CCCC[C@H]2C(=O)O[C@H]([C@H](C)C[C@@H]2CC[C@@H](O)[C@H](OC)C2)CC(=O)[C@H](C)/C=C(\C)[C@@H](O)[C@@H](OC)C(=O)[C@H](C)C[C@H](C)/C=C/C=C/C=C/1C [Rapamycin] (10 µM) | 0
Cc1ccc(Nc2cc(-c3cccc(N4C(=O)c5ccccc5C4=O)c3)ncn2)cc1NS(C)(=O)=O (10 µM) | 0
Nc1cc(Nc2ccc(S(N)(=O)=O)cc2)ncn1 (10 µM) | 0
CCOc1cc(C(=O)N2CCC(N3CCN(C)CC3)CC2)ccc1Nc1ncc2c(n1)N(C1CCCC1)c1ccccc1C(=O)N2C (10 µM) | 0
COCCOc1ccc(-c2cn(-c3ccccc3)c3nc[nH]c(=O)c23)cc1 (10 µM) | 0
Cc1cc(O)c(C(C)C)cc1N=O [Poloxime] (10 µM) | 2
